US20210380623A1, “PRODRUG GALACTOSIDE INHIBITOR OF GALECTINS” (GALECTO BIOTECH AB, priority 2018, published 2021)
For part of these data: For at least one compound, name, drawing or mass did not settle the structure. Some of these results come from one statement about several compounds together.

Amino acid sequences for entries named in this document (tags omitted).
UniProt P17931, whole entry: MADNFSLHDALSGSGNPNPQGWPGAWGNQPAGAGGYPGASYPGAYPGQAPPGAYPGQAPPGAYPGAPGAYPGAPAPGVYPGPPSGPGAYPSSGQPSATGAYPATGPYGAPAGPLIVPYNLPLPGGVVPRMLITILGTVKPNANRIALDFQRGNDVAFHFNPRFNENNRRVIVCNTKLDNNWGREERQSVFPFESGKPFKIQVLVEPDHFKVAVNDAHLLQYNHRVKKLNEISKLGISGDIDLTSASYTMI

Key:
[1] = molecular target: Galectin-3 (Homo sapiens, UniProt P17931); assay: fluorescence anisotropy assay, inhibition of galectin / fluorescein tagged saccharide probe interaction; format: binding; conditions: pro-drug itself
[2] = aqueous solubility; format: physicochemical; conditions: relative to Ref 1

Row | SMILES | affinity towards the corresponding galectin (in words) [1] | aqueous solubility improvement over Ref 1 [2]
1 | O=P(O)(O)O[C@@H]1[C@@H](n2cc(-c3cc(F)c(F)c(F)c3)nn2)[C@@H](O)[C@@H](CO)O[C@@H]1Sc1cncc(Br)c1 [Example 2, 5-Bromopyridin-3-yl 3-deoxy-3-[4-(3,4,5-trifluorophenyl)-1H-1,2,3-triazol-1-yl]-2-O-phospho-1-thio-α-D-galactopyranoside] | high affinity | 
2 | O=S(=O)(O)O[C@@H]1[C@@H](n2cc(-c3cc(F)c(F)c(F)c3)nn2)[C@@H](O)[C@@H](CO)O[C@@H]1Sc1cncc(Br)c1 [Example 5, 5-Bromopyridin-3-yl 3-Deoxy-3-[4-(3,4,5-trifluorophenyl)-1H-1,2,3-triazol-1-yl]-2-O-sulfo-1-thio-α-D-galactopyranoside] | high affinity | 
3 | O=S(=O)(O)OC[C@H]1O[C@H](Sc2cncc(Br)c2)[C@H](O)[C@@H](n2cc(-c3cc(F)c(F)c(F)c3)nn2)[C@H]1O [Example 6, 5-Bromopyridin-3-yl 3-Deoxy-3-[4-(3,4,5-trifluorophenyl)-1H-1,2,3-triazol-1-yl]-6-O-sulfo-1-thio-α-D-galactopyranoside] | low | 
4 | O=P(O)(O)OCOC[C@H]1O[C@H](Sc2cncc(Br)c2)[C@H](O)[C@@H](n2cc(-c3cc(F)c(F)c(F)c3)nn2)[C@H]1O [Example 7, 5-Bromopyridin-3-yl 3-deoxy-3-[4-(3,4,5-trifluorophenyl)-1H-1,2,3-triazol-1-yl]-6-O-[(phosphonooxy)methyl]-1-thio-α-D-galactopyranoside] |  | > 1000 fold
5 | O=P(O)(O)OCO[C@@H]1[C@@H](n2cc(-c3cc(F)c(F)c(F)c3)nn2)[C@@H](O)[C@@H](CO)O[C@@H]1Sc1cncc(Br)c1 [Example 8, 5-Bromopyridin-3-yl 3-deoxy-3-[4-(3,4,5-trifluorophenyl)-1H-1,2,3-triazol-1-yl]-2-O-[(phosphonooxy)methyl]-1-thio-α-D-galactopyranoside] | high affinity | > 1000 fold
